# The other results are listed elsewhere or left out.
# Amino acid sequences for entries named in this document (tags omitted). A change or cut given only in a name is not applied to a line headed by its entry.
# UniProt Q9P0P8: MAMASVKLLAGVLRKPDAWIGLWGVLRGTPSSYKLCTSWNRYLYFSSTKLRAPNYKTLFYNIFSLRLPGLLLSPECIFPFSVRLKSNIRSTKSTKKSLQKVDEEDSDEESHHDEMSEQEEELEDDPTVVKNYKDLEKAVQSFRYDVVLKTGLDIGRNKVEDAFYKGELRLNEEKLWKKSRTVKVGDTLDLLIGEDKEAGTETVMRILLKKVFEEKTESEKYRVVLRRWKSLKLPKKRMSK
# UniProt Q9P032: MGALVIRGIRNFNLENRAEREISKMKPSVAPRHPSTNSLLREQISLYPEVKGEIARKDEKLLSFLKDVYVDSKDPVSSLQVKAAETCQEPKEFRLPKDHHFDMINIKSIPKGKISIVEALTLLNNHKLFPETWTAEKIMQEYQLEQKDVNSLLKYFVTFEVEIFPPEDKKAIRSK
# UniProt Q6ZRQ5: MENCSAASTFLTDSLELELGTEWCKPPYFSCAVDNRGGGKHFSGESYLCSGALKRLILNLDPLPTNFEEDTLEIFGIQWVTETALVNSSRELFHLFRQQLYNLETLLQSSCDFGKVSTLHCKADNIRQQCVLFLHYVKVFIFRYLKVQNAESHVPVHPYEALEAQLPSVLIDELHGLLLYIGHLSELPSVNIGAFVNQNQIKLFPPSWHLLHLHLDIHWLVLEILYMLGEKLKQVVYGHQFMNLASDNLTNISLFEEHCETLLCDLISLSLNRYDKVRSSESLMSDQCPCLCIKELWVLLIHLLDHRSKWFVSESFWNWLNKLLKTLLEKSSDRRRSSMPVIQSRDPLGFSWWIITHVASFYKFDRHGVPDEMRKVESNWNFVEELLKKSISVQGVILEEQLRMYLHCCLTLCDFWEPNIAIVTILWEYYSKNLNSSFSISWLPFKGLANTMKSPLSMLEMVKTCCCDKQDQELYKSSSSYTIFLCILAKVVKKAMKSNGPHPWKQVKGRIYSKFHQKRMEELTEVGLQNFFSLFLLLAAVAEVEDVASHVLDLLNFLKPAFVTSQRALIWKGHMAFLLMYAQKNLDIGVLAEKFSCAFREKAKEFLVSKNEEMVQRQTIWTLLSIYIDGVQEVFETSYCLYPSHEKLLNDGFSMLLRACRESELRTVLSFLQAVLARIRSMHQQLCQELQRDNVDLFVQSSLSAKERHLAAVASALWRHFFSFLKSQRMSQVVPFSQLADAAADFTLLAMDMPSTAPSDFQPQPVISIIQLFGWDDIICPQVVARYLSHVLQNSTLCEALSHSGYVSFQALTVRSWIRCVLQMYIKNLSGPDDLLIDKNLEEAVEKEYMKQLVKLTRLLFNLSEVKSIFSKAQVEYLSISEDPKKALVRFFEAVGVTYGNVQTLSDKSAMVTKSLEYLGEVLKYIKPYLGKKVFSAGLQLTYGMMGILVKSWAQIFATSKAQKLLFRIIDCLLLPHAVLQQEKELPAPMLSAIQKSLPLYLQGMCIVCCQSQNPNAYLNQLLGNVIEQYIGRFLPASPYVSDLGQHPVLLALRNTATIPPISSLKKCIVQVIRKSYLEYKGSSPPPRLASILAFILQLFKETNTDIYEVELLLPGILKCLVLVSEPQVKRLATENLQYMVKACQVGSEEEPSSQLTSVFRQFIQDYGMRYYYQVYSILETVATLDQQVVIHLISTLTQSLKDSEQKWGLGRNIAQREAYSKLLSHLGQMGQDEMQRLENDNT
# UniProt P56378: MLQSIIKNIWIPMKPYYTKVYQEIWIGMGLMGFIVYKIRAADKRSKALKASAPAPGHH
# UniProt Q86VP6: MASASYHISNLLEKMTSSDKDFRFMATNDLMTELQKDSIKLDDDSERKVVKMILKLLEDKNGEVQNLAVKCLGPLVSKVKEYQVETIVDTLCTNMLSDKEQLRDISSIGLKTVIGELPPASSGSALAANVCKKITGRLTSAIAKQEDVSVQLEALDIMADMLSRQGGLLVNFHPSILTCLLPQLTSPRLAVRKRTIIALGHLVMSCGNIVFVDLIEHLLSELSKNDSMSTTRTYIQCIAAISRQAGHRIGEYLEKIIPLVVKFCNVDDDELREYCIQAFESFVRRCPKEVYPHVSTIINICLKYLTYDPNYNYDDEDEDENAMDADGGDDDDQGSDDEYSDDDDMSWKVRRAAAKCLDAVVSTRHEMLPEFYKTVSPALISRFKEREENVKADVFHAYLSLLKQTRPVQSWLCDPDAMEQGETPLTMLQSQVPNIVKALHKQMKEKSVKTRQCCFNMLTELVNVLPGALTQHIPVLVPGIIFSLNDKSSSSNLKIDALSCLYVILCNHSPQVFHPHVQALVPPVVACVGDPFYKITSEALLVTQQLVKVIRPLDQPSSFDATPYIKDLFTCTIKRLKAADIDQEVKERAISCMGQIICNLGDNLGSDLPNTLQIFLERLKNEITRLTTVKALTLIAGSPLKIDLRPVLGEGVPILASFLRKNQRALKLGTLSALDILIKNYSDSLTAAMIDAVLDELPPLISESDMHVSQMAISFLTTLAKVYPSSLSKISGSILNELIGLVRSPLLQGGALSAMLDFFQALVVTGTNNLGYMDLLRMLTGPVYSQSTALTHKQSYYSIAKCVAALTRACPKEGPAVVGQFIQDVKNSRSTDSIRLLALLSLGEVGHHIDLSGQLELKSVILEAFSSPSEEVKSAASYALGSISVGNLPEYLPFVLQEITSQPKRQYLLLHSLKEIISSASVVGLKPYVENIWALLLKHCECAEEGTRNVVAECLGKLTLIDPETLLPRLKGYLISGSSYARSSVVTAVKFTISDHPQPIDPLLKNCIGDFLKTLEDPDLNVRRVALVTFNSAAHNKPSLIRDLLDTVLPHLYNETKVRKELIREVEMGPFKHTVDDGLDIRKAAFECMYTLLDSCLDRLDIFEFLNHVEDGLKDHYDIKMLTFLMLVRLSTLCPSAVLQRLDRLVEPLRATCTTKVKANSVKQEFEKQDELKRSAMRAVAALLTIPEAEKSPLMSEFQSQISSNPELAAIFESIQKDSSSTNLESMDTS
# UniProt Q8NDZ4: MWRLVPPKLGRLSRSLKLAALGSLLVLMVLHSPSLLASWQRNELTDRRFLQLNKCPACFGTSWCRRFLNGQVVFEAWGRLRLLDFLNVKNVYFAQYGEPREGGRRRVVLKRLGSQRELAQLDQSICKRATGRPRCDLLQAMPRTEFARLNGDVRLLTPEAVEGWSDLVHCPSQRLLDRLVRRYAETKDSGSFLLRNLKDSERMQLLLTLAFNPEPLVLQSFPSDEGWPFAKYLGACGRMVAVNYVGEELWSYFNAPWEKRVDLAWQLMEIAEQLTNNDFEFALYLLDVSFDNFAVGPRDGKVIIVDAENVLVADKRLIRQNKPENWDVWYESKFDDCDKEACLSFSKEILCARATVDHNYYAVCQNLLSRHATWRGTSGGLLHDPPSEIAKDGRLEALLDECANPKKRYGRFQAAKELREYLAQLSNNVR
# UniProt Q9BQP7: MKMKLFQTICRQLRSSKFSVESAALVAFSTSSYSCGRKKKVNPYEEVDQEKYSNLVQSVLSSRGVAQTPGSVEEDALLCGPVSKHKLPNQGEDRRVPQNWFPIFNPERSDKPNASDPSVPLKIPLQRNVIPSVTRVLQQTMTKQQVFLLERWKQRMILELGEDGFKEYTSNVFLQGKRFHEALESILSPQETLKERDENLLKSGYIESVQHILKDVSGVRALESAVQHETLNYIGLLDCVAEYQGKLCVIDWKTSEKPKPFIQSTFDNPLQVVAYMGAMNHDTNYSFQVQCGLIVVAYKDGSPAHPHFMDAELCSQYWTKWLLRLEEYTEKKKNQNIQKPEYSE
# UniProt Q8WVR3: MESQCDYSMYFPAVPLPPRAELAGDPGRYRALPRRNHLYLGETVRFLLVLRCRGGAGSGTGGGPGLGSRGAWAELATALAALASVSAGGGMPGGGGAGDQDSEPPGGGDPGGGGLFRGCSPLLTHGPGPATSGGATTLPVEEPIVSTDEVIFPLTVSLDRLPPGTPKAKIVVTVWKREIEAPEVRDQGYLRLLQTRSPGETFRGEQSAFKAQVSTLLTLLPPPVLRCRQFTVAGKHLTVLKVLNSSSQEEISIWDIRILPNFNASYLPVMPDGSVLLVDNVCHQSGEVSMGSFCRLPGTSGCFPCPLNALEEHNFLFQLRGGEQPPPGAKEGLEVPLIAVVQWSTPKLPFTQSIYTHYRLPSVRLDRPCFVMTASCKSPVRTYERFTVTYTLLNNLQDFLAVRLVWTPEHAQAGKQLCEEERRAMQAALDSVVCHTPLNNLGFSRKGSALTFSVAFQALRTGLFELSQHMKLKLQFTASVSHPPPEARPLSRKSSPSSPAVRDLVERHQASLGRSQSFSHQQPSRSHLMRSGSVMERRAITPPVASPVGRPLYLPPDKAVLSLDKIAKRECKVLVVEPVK
# UniProt Q6UW56: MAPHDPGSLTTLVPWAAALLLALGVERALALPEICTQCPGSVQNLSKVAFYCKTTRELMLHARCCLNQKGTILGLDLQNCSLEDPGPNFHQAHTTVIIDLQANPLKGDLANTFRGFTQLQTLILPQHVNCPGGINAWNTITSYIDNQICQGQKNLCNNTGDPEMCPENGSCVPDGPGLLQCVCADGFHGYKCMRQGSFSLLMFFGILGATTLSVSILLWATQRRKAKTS
# UniProt Q2VPK5: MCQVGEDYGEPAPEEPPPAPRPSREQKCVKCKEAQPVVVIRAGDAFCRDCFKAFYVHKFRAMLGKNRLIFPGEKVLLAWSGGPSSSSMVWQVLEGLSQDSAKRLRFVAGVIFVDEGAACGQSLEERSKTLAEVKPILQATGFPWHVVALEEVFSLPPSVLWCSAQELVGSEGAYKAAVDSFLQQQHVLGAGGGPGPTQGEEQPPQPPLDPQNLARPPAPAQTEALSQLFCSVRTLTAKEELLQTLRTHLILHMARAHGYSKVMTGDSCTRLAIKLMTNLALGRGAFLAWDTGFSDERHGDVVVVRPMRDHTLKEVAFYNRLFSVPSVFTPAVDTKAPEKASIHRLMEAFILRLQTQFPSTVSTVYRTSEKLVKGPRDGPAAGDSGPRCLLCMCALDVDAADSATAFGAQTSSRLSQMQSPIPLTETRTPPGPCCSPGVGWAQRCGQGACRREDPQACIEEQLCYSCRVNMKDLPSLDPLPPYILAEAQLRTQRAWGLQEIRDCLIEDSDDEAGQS
# UniProt Q6ZSJ8: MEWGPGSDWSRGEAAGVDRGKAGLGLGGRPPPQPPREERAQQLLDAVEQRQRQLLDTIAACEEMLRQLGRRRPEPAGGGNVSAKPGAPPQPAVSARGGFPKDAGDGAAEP
# UniProt Q0PNE2: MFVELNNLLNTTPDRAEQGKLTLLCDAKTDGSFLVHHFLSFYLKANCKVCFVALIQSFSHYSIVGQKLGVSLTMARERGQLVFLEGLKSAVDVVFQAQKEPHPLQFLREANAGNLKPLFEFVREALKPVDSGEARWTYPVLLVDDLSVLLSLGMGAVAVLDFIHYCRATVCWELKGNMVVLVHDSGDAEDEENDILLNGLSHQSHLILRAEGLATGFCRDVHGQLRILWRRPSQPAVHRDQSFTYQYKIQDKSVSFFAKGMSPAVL
# UniProt Q9BSD7: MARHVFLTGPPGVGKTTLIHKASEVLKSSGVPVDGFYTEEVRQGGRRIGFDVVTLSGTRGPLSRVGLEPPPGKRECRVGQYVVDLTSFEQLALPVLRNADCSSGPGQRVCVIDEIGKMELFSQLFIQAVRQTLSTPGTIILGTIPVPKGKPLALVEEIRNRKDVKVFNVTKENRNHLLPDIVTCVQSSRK
# Compound: COc1ccc(Cn2ccc3ccc(C(=O)NO)cc32)cc1
# Assay: dose-dependent thermal stabilisation call (2D-TPP, DLPTP, 10% FDR) (binary (1 = stabilised)); higher = stabilised by the compound
# Conditions: system: HL-60 intact cells; concentration range 0.04-10 µM
row,Target,dose-dependent thermal stabilisation call
1,C6ORF203 (UniProt Q9P0P8),inactive: 0
2,C6ORF66 (UniProt Q9P032),inactive: 0
3,C6ORF167 (UniProt Q6ZRQ5),inactive: 0
4,C14ORF2 (UniProt P56378),inactive: 0
5,CAND1 (UniProt Q86VP6),inactive: 0
6,C3ORF58 (UniProt Q8NDZ4),inactive: 0
7,C20ORF72 (UniProt Q9BQP7),inactive: 0
8,C7ORF43 (UniProt Q8WVR3),inactive: 0
9,C2ORF28 (UniProt Q6UW56),inactive: 0
10,C16ORF84 (UniProt Q2VPK5),inactive: 0
11,C1ORF122 (UniProt Q6ZSJ8),inactive: 0
12,C3ORF75 (UniProt Q0PNE2),inactive: 0
13,C1ORF57 (UniProt Q9BSD7),inactive: 0

# Entries 3 to 4, reprinted for reference:
row,Target,dose-dependent thermal stabilisation call
3,C6ORF167 (UniProt Q6ZRQ5),inactive: 0
4,C14ORF2 (UniProt P56378),inactive: 0

# Source: the supplement of paper PMC7666118
